# From patent US10005846
# Sequences of proteins named here, by UniProt entry; tags and fusion partners are left off. A change or cut given only in a name is not applied to a line headed by its entry.
# UniProt P21980: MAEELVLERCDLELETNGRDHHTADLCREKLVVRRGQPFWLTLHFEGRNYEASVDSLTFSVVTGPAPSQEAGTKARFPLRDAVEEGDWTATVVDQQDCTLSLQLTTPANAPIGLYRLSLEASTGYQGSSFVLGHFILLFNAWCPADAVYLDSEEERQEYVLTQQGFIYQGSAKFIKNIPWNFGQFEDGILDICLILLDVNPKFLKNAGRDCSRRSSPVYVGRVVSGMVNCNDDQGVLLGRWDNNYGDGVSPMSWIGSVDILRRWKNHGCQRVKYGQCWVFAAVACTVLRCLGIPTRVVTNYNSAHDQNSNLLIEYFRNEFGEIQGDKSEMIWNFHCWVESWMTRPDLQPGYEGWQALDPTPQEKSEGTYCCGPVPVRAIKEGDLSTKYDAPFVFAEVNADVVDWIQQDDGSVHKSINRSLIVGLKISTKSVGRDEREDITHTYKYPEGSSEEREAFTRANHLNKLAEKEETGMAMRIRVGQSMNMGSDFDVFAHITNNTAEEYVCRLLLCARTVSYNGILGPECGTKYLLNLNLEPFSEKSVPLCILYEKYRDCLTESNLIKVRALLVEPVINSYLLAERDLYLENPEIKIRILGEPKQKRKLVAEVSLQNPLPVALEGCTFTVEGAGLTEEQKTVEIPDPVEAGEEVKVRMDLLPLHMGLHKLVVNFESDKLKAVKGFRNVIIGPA
# UniProt P21981: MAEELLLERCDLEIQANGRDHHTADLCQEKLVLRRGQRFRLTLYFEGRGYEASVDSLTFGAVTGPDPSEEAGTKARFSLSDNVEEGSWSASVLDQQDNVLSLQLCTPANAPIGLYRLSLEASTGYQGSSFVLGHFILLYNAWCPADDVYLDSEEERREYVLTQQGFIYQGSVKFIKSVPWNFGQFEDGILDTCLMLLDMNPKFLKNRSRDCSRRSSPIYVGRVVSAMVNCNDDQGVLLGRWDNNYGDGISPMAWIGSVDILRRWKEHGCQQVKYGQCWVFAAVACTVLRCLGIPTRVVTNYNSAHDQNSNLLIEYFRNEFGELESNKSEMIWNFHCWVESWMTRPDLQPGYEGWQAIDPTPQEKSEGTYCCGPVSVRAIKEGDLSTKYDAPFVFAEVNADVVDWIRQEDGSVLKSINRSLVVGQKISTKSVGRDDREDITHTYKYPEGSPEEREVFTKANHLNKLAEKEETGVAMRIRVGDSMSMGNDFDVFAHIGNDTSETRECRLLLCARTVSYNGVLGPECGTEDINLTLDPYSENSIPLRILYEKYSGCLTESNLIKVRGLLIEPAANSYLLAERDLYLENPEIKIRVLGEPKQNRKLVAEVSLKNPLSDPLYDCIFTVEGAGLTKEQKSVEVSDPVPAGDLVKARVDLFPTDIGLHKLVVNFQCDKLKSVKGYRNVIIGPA
# UniProt Q9WVJ6: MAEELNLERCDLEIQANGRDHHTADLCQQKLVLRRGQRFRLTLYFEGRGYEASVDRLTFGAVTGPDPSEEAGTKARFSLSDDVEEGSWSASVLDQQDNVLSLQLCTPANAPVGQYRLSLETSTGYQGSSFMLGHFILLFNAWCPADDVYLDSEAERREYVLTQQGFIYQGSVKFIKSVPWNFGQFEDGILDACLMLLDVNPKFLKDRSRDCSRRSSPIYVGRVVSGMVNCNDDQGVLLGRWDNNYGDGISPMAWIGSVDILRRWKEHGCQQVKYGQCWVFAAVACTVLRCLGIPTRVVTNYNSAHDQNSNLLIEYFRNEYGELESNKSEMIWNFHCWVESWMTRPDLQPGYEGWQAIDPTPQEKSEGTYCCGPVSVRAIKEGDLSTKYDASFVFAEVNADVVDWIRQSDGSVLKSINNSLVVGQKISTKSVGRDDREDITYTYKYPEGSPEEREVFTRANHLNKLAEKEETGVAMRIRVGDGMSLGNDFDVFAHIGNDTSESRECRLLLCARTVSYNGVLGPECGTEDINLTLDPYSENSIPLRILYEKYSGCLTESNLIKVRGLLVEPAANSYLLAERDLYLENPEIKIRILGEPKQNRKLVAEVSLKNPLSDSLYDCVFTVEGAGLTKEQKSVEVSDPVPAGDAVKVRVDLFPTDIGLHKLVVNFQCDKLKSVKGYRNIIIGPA
# Results are given in words; binding and its absence hold for the method and conditions named. Some binding calls cover weakened binding; strength is not graded here.
# What was measured:
# [1] = target: human transglutaminase type 2 (TG2) (human) (UniProt P21980); assay: western blot, reducing gel
# [2] = target: human transglutaminase type 2 (TG2) (human) (UniProt P21980); assay: western blot of 25 µg HepG2 lysate
# [3] = target: human transglutaminase type 2 (TG2) (human) (UniProt P21980); assay: ELISA, hybridoma supernatant
# mouse TG2 (mouse) = mouse TG2 (mouse) (UniProt P21981); assay: western blot and ELISA
# rat TG2 (rat) = rat TG2 (rat) (UniProt Q9WVJ6); assay: western blot and ELISA
# [4] = target: human transglutaminase type 2 (TG2) (human) (UniProt P21980); assay: Western blot of 25 ug HepG2 lysate probed with AB1 IgG at 1 ng/ml [panel B]
# [5] = target: human transglutaminase type 2 (TG2) (human) (UniProt P21980); assay: ELISA, hybridoma conditioned medium, plates coated with recombinant TG (100 ng/well) [panel A]
# [6] = target: human transglutaminase type 2 (TG2) (human) (UniProt P21980); assay: ELISA, purified IgG at 0.1 ug/ml, plates coated with 100 ng of each TG [panel B]
# [7] = target: cynomolgus monkey TG2 (cynomolgus monkey); assay: SPR (Biacore)
# [8] = target: cynomolgus monkey TG2 (cynomolgus monkey); assay: ELISA on immobilised cynomolgus monkey TG2
# [9] = target: cynomolgus monkey TG2 (cynomolgus monkey); assay: Biacore, antibody captured on an anti-human IgG1 (Fc) chip, cynomolgus monkey TG2 injected
# [10] = target: human transglutaminase type 2 (TG2) (human) (UniProt P21980); assay: SPR (Biacore)
# [11] = target: human transglutaminase type 2 (TG2) (human) (UniProt P21980); assay: ELISA on immobilised human TG2
binding [1],binding [3],binding (mouse TG2 (mouse)),binding (rat TG2 (rat)),binding [5],binding [6],binding [7],binding [8],Binder,other results
–,–,–,–,–,–,binds,binds,"cBB001 chimeric antibody (murine BB7 variable regions) (antibody, human IgG1, V domains shown) VH: AVQLVESGGGLVKPGGSLKLSCAASGIIFSSSAMSWVRQTPEKRLEWVATISSGGRSTYYPDSVKGRFTVSRDSAKNTLYLQMDSLRSEDTAIYYCAKLISPYWGQGTTLTVSS VL: AIKMTQSPSSMYASLGERVIITCKASQDINSYLTWFQQKPGKSPKTLIYLTNRLMDGVPSRFSGSGSGQEFLLTISGLEHEDMGIYYCLQYVDFPYTFGGGTKLEIK",–
–,–,–,–,–,–,binds,binds,"hBB001AA humanised BB7 antibody (antibody, V domains shown) VH: EVQLLESGGGLVQPGGSLRLSCAASGFTFSSSAMSWVRQAPGKGLEWVSTISSGGRSTYYPDSVKGRFTISRDNSKNTLYLQMNSLRAEDTAVYYCAKLISPYWGQGTLVTVSS VL: DIQMTQSPSSLSASVGDRVTITCKASQDINSYLTWFQQKPGKAPKSLIYLTNRLMDGVPSRFSGSGSGTDFFLTISSLQPEDFATYYCLQYVDFPYTFGQGTKVEIK",binding [10]: binds; binding [11]: binds
–,–,–,–,–,–,binds,–,"hAB005 (hAB001AJ) humanised AB1 antibody (antibody, V domains shown) VH: EVQLLESGGGLVQPGGSLRLSCAASGFTFSSSAMSWVRQAPGKGLEWVSTISVGGGKTYYPDSVKGRFTISRDNSKNTLYLQMNSLRAEDTAVYYCAKLISLYWGQGTLVTVSS VL: DIQMTQSPSSLSASVGDRVTITCKASQDINSYLTWFQQKPGKAPKSLIYRTNRLFDGVPSRFSGSGSGTDFFLTISSLQPEDFATYYCLQYDDFPYTFGQGTKVEIK",–
binds,binds,binds,binds,binds,binds,–,–,"AG9 murine monoclonal antibody (antibody, V domains shown) VH: EVQLQQSGPELVKPGASVKMSCRASGYTFTTYVIHWVKQKPGQGLEWIGYINPYNDGARYNEKFKGKATLTSDKSSTTAYMELSSLTSEDSAVYYCARLSSDYWGQGTTLTVSS VL: DVLMTQNPLSLPVSLGDQASISCRSSRSIEHSNGNTYLEWYLQKPGQSPKFLIYKVSNRFSGVPDRFSGSGSGTDFTLRISSVEAEDLGVYYCFQGSHVPFTFGGGTKLEIK",–
binds,binds,binds,binds,binds,binds,–,–,"AH3 murine monoclonal antibody (antibody, V domains shown) VH: EVQLQQSGPELVKPGASVKMSCRASGYTFTTYVIHWVKQKPGQGLEWIGYINPYNDGARYNEKFKGKATLTSDKSSTTAYMELSSLTSEDSAVYYCARLSSDYWGQGTTLTVSS VL: DVLMTQNPLSLPVSLGDQASISCRSSRSIEHSNGNTYLEWYLQKPGQSPKFLIYKVSNRFSGVPDRFSGSGSGTDFTLRISSVEAEDLGVYYCFQGSHVPFTFGGGTKLEIK",–

# Continued, binder first:
Binder,binding [1],binding [3],binding (mouse TG2 (mouse)),binding (rat TG2 (rat)),binding [5],binding [6],binding [7],binding [8],other results
"AB1 murine monoclonal antibody (antibody, V domains shown) VH: EVQLVESGGGLVKPGGSLKLSCAASGFTLSSSAMSWVRQTPDRRLEWVATISVGGGKTYYPDSVKGRFTISRDNAKNTLYLQMNSLRSEDTAMYYCAKLISLYWGQGTTLTVSS VL: DIKMTQSPSSMYASLGERVTITCKASQDINSYLTWFQQKPGKSPKTLIYRTNRLFDGVPSRFSGSGSGQDFFLTISSLEYEDMGIYYCLQYDDFPYTFGGGTKLEIK",binds,binds,binds,binds,binds,binds,–,–,binding [2]: binds; binding [4]: binds
"cDC001 chimeric antibody (murine DC1 variable regions) (antibody, human IgG1, V domains shown) VH: EVQLVESGGGLVKPGGSLKLSCAASGFTLSTHAMSWVRQTPEKRLEWVATISSGGRSTYYPDSVKGRFTISRDNVKNTLYLQLSSLRSEDTAVYFCARLISTYWGQGTTLTVSS VL: DITMTQSPSSIYASLGERVTITCKASQDINSYLTWFQQKPGKSPKILIYLVNRLVDGVPSRFSGSGSGQDYALTISSLEYEDMGIYYCLQYDDFPYTFGGGTKLEIK",–,–,–,–,–,–,binds,binds,–
"hAB004 (hAB001AE) humanised AB1 antibody (antibody, V domains shown) VH: EVQLLESGGGLVQPGGSLRLSCAASGFTFSSSAMSWVRQAPGKGLEWVSTISVGGGKTYYPDSVKGRFTISRDNSKNTLYLQMNSLRAEDTAVYYCAKLISLYWGQGTLVTVSS VL: EIVLTQSPSSLSASVGDRVTITCKASQDINSYLTWYQQKPGKAPKLLIYRTNRLFDGVPSRFSGSGSGTDFFFTISSLQPEDFGTYYCLQYDDFPYTFGGGTKLEIK",–,–,–,–,–,–,binds,binds,binding [9]: binds
"hBB001BB humanised BB7 antibody (antibody, V domains shown) VH: EVQLLESGGGLVQPGGSLRLSCAASGIIFSSSAMSWVRQAPGKGLEWVATISSGGRSTYYPDSVKGRFTVSRDSSKNTLYLQMNSLRAEDTAVYYCAKLISPYWGQGTLVTVSS VL: DIKMTQSPSSLSASVGDRVTITCKASQDINSYLTWFQQKPGKAPKTLIYLTNRLMDGVPSRFSGSGSGQEFLLTISSLQPEDFATYYCLQYVDFPYTFGQGTKVEIK",–,–,–,–,–,–,binds,binds,binding [10]: binds; binding [11]: binds
